Some of the results follow. The main result of the screen is listed elsewhere. These columns were measured beside it and carry no call. The list favours compounds with an active or inconclusive main result. Words in brackets tell the shape of the fitted curve; partial curves, single points and poor fits give uncertain potencies.
Test: qHTS Assay for Lipid Storage Modulators in Drosophila S3 Cells;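 on cell number change: cells counted by Cell Tracker Red CMTPX staining in the red channel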
Conditions: BODIPY lipid droplet fluorescence, 18-24 h; for cell number change: measured here: cell count max response, cells fed with added oleic acid
Outline: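 Drosophila S3 cells got compounds at several concentrations plus oleic acid (400 uM solution). Laser-scanning cytometry with 488 nm excitation read lipid droplets at 500-530 nm and cells at 575-640 nm. Percent activity was relative to 20 uM Triacsin C.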

[1] = measured here: cell number channel AC50, cells fed with added oleic acid
[2] = measured here: lipid fluorescence (Fed channel) AC50, cells fed with added oleic acid

Compound | cell number change [%] | AC50 [1] | AC50 [2]
CCC(C)NC(=O)C1CCN(S(=O)(=O)c2ccc(OC)cc2)CC1 (centres undefined) | -33.4 | 29.1 µM [falling, partial curve, poor fit] | –
O=C(NCc1cn2ccsc2n1)c1cccc(C(F)(F)F)c1 | -33.9 | 29.1 µM [falling, single point] | –
C/C(=N\NC(=O)CCc1ccc(S(=O)(=O)N2CCOCC2)cc1)c1ccc(Br)cc1 | -36.3 | – | –
O=C(COC(=O)COc1ccccc1)Nc1ncc([N+](=O)[O-])s1 | 9.59 | – | 0.58 µM [rising, single point]
COc1ccccc1Nc1nnc(SCc2cc(=O)n3cc(C)ccc3n2)s1 | 4.82 | – | 0.82 µM [rising, partial curve, poor fit]
COCC(C)NC(=S)N1CCN(c2ccccc2Cl)CC1 (centres undefined) | 87.4 | – | –
Cc1ccc(S(=O)(=O)N2CCCC2CNC(=O)C(=O)NC2CC2)cc1 (centres undefined) | -6.34 | 0.731 µM [falling, single point] | –
Cc1cccc2c1CC(C)(C)N=C2C1=C(O)CCCC1=O | 32.8 | 32.6 µM [rising, partial curve, poor fit] | –
COCCN(C(=O)CCC(=O)Nc1cc(C)on1)C(C(=O)NC1CCCC1)c1ccc(C(C)C)cc1 (centres undefined) | -3.95 | – | 6.31 µM [falling, single point]
CCc1nn2cc(C(=O)c3cc(Cl)ccc3O)cnc2c1-c1ccc(F)cc1 | -33.1 | 29.1 µM [falling, single point] | 29.1 µM [falling, single point]
CCCCCCNCCn1cnc2c(N)ncnc21 | 27 | – | 23.1 µM [rising, partial curve]
O=C(NCCC1=CCCCC1)C1CCC(=O)N(Cc2ccc(Cl)cc2)C1 (centres undefined) | -19 | – | 32.6 µM [falling, partial curve, poor fit]
Cn1c(C(=O)N2CCN(c3ccccc3)CC2)cc2cc(Cl)ccc21 | -13.6 | – | 29.1 µM [falling, single point]
CCOc1ccccc1NC(=O)CSc1nc(=O)n(CCCN2CCOCC2)c2c1CCCC2 | 25 | 7.31 µM [rising, partial curve, poor fit] | –
O=c1c2ccccc2nc(-c2ccco2)n1-c1nc2ccccc2s1 | 11 | – | 2.31 µM [rising, full curve, poor fit]
O=C(Nc1ccc2c(c1)OCO2)[C@@H]1CCCN1S(=O)(=O)c1cccc2cccnc12 | – | – | 20.6 µM [falling, single point]
Cc1cc(C)n(-c2nnc(N3CCN(c4ccccc4)CC3)nn2)n1 | -33.8 | 1.46 µM [falling, full curve, poor fit] | 0.184 µM [falling, full curve, poor fit]
Cc1cc(NCc2cccnc2)nc(N)n1 | 5.56 | – | –
O=C(CCC(=O)c1ccc(Br)cc1)Nc1ccc(F)cc1 | 4.46 | – | –
Cc1ccccc1CSCC(=O)c1c(N)n(CC(C)C)c(=O)n(C)c1=O | -2.01 | 0.58 µM [rising, full curve] | –
CCc1ccccc1N(CC(=O)N1CCN(c2ccccc2F)CC1)S(C)(=O)=O | -4.87 | – | 16.4 µM [rising, single point]

Compound | cell number change [%] | AC50 [1] | AC50 [2]
Cc1ccc(S(=O)(=O)Cn2nnnc2C(c2ccc(F)cc2)N2CCCCC2)cc1 (centres undefined) | -2.63 | – | 0.164 µM [rising, full curve, poor fit]
COc1ccc(N(C(=O)c2cc3ccccc3oc2=O)C2C=CS(=O)(=O)C2)cc1 (centres undefined) | 8.2 | – | 0.461 µM [falling, partial curve, poor fit]
COc1ccc(CNC(=O)C2CCCN2CCc2ccccc2)cc1OC (centres undefined) | – | 0.411 µM [falling, single point] | 29.1 µM [falling, single point]
NC(=O)c1ccc(SCC(=O)OCC(=O)N2CCN(C(=O)c3ccco3)CC2)c([N+](=O)[O-])c1 | 2.57 | 0.411 µM [falling, full curve, poor fit] | 0.366 µM [falling, full curve]
COC(=O)c1ccc(C2C(C#N)=C(N)Oc3cc(O)ccc32)cc1 (centres undefined) | -8.99 | – | 29.1 µM [rising, single point]
O=C(CCc1nnc2ccc(NCc3ccco3)nn12)Nc1ccccn1 | -17.7 | 2.59 µM [falling, single point] | 0.184 µM [falling, full curve]
CC1CCCN(Cc2cnc(Cl)s2)C1 (centres undefined) | -17.3 | – | 1.16 µM [falling, full curve]
Cc1ccc(/C=C/C(=O)OCC(=O)NCCN2C(=O)CSC2=O)o1 | – | – | 29.1 µM [rising, partial curve, poor fit]
COc1cccc(-c2cc(C(=O)Nc3ccc([N+](=O)[O-])cn3)c3ccccc3n2)c1 | 15.9 | – | –
O=C(CNC(=O)c1ccco1)N=Nc1c(O)n(CCc2ccccc2)c2ccccc12 | 0.213 | – | –
CCCC(=O)Nc1cccc(Oc2nc(C)cc(C)c2C#N)c1 | -5.44 | – | –
Cc1cc(-c2nn(-c3ccccc3F)cc2CN2CCCC(C(N)=O)C2)c(C)s1 (centres undefined) | 12 | – | –
COc1ccc2c(c1)CCc1sc(NC(=O)c3ccco3)nc1-2 | -11.2 | 3.26 µM [rising, single point] | 6.51 µM [rising, single point]
O=C(NC1CCCCC1)C1CCN(c2nnnn2-c2ccccc2)CC1 | -2.1 | – | 0.00517 µM [rising, full curve, poor fit]
CN(Cc1cccnc1)C(=O)c1cc(COc2ccc3c(c2)CCCC3)on1 | -50 | 29.1 µM [falling, single point] | 29.1 µM [falling, single point]
Cc1cccc(Nc2nc(Cl)ncc2F)c1C | 28.5 | – | –
CCCCn1c(O)c(N=NC(=O)c2ccco2)c2ccccc21 | 10.4 | 0.731 µM [rising, full curve, poor fit] | –
CC1CCCCN1C(=O)Cn1c(=O)n(C2CCCCC2)c(=O)c2ccccc21 (centres undefined) | 6.8 | – | 29.1 µM [rising, single point]
O=C(CC(Cc1ccccc1)C(=O)O)Nc1ccc(F)cc1 (centres undefined) | 4.46 | – | 6.51 µM [falling, single point]
O=C(CSc1nc2[nH]ncc2c(=O)[nH]1)NCc1ccccc1Cl | -2.49 | – | –
CC(=O)Nc1ccc(S(=O)(=O)N(C)CC(=O)OCC(=O)NNC(=O)c2ccccc2F)cc1 | -16.5 | – | 1.3 µM [falling, full curve, poor fit]

Compound | cell number change [%] | AC50 [1] | AC50 [2]
C#CCSc1nc(-c2ccccc2)cc(C(F)(F)F)c1C#N | – | 0.206 µM [rising, full curve] | –
NC(=O)c1ccc[n+](CC(=O)c2cccc([N+](=O)[O-])c2)c1 | -2.11 | – | 0.00461 µM [falling, full curve, poor fit]
CCc1c(C(=O)Nc2ccc(C)c(C)c2)[nH]c(C)c1C(C)=O | 20.8 | – | 29.1 µM [rising, single point]
Cc1ccc(N(CC(=O)NCCSc2nc3ccccc3s2)S(=O)(=O)c2ccccc2)c(C)c1 | -12.7 | – | 13 µM [falling, single point]
N#Cc1ccccc1CSc1nc2ccsc2c(=O)n1Cc1ccccn1 | 1.27 | – | 0.651 µM [rising, partial curve]
COc1cc(/C=C(\C#N)c2nc3ccccc3n2C)cc(OC)c1O | -12.1 | 0.58 µM [falling, full curve, poor fit] | –
COC(C(=O)NNS(=O)(=O)c1ccc([N+](=O)[O-])cc1)c1ccccc1 (centres undefined) | -3.85 | – | 29.1 µM [rising, single point]
CCOC(=O)C1CCN(CCC(=O)Nc2ccc(C)c(C)c2)CC1 | 46.5 | – | –
CC(C)NC(=O)NC(=O)CSc1ccc(S(=O)(=O)N2CCOCC2)cn1 | 50 | 16.4 µM [rising, single point] | –
Cn1cc(C(=O)N/N=C/c2ccc([N+](=O)[O-])cc2)c2ccccc21 | 61.8 | 4.11 µM [rising, partial curve, poor fit] | 1.46 µM [rising, full curve]
CCc1ccc(-c2nc(SCC(=O)NC3CC3)n[nH]2)cc1 | – | – | 5.17 µM [falling, single point]
CCCCC(=O)Nc1c(O)c2ccccc2[nH]c1=O | 33 | 10.3 µM [rising, single point] | –
Nc1ccc(C(CC(=O)O)n2cccc2)cc1 (centres undefined) | 24.1 | 0.146 µM [rising, full curve, poor fit] | 0.00651 µM [rising, full curve, poor fit]
Cc1cccc(C(=O)NCC(=O)OCC(=O)c2ccc(Cl)s2)c1 | -13.6 | – | –
O=C(Cn1cnc2ccccc2c1=O)N(Cc1ccco1)c1ccc(O)cc1 | 3.04 | – | –
O=C(NCCCN1CCCC1=O)C(=O)NCC1OCCN1S(=O)(=O)c1ccc(Br)cc1 (centres undefined) | -11.4 | – | –
Cc1c(C(=O)N(C)CCC#N)oc2ccc(S(=O)(=O)N3CC(C)CC(C)C3)cc12 (centres undefined) | 23.8 | – | 6.51 µM [falling, single point]
Cc1cnc(NC(=O)c2sc(Nc3ccccc3)nc2N)o1 | -60.5 | 25.9 µM [falling, partial curve, poor fit] | 23.1 µM [falling, partial curve, poor fit]
CN(C)CCOC(=O)C(c1ccccc1)C1(O)CCCC1 (centres undefined) | – | – | 0.184 µM [falling, full curve, poor fit]
COc1ccc(NC(=O)c2sc3nc(Cc4ccccc4)cc(C(F)(F)F)c3c2N)cc1OC | 4.66 | – | 29.1 µM [falling, partial curve, poor fit]

Of the compounds above, these contain a COOH group:
Compound | cell number change [%] | AC50 [1] | AC50 [2]
O=C(CC(Cc1ccccc1)C(=O)O)Nc1ccc(F)cc1 (centres undefined) | 4.46 | – | 6.51 µM [falling, single point]
Nc1ccc(C(CC(=O)O)n2cccc2)cc1 (centres undefined) | 24.1 | 0.146 µM [rising, full curve, poor fit] | 0.00651 µM [rising, full curve, poor fit]
